According to patent EP0312157A2 (Merck & Co., Inc., priority 1987, dated 1989):

Assay: general procedure: solution-phase peptide synthesis; acyl azide (isoamylnitrite/HCl); DCC/HOBT; BOP; N-hydroxysuccinimide ester
Conditions: hydrochloride or acetate

For “Boc-Phe-His-ACHPA-Lys(Cbz)-NHCH2(pyridin-4-yl)”, the “final HPLC purity” value (coupling step, C18-Zorbax HPLC) was > 99% and the step yield (coupling step) was 82%.
For “Boc-Phe-His-ACHPA-Lys-N(CH3)CH2(pyridin-4-yl) acetate”, the “final HPLC purity” value (late stage modification step, C18 Dynamax HPLC) was 98.9%.
“Boc-Tyr(OMe)-His(DNP)-ACHPA-Lys(Cbz)-NHCH2-(pyridin-4-yl)” gave a step yield (coupling step) of 87%.
For “PEPTIDE1{[BocNHCH2CH2OCO].F.H.[ACHPA].K.[NHCH2(piperidin-4-yl)]}$$$$V2.0”, the step yield (late stage modification step) was 78%.
With “PEPTIDE1{[Boc].[YOMe].H.[ACHPA].K.[PyM]}$$$$V2.0” the “final HPLC purity” value (late stage modification step, Dynamax Scout-C18 HPLC) was 98.5% and the step yield (late stage modification step) was 65%.
For “PEPTIDE1{[iPrSO2].F.H.[ACHPA].K.[NHCH2(piperidin-4-yl)]}$$$$V2.0”, the step yield (late stage modification step) was 86%.

Some peptides are written in HELM: one residue between dots, names in brackets for other building blocks, links after the first $.
